Experiment [1] addresses T1, calnexin (rat brain) (rat (endogenous in brain)) (UniProt P35565).
T1 sequence: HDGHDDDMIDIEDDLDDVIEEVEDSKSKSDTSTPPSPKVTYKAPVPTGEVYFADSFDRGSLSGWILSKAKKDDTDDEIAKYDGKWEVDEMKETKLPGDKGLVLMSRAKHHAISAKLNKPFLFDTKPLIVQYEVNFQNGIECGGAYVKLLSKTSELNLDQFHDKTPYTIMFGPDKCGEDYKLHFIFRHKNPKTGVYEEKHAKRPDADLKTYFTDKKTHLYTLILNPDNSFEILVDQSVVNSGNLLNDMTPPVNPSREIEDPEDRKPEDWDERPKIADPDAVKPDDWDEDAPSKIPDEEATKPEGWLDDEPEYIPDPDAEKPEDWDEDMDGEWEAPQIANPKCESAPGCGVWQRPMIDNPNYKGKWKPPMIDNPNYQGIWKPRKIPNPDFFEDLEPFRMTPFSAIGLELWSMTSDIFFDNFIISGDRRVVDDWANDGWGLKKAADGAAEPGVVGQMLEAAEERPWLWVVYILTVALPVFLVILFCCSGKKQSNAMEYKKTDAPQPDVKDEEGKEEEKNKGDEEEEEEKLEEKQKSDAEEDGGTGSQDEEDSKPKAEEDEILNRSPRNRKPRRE
In words: co-IP; 10% rat brain homogenate (also NEC versus GAERS brain) in 50 mM TrisHCl pH 8.0, 300 mM NaCl, 0.5% Triton X100, 0.5% DOC; rabbit polyclonal anti-CNX overnight at 4 °C, Sepharose G beads; blotted for Cav3.2; signal normalised to precipitated calnexin.

Amino acid sequences for entries named in this document (tags omitted). Residues count along the entry.
UniProt P35564, residues 21-591: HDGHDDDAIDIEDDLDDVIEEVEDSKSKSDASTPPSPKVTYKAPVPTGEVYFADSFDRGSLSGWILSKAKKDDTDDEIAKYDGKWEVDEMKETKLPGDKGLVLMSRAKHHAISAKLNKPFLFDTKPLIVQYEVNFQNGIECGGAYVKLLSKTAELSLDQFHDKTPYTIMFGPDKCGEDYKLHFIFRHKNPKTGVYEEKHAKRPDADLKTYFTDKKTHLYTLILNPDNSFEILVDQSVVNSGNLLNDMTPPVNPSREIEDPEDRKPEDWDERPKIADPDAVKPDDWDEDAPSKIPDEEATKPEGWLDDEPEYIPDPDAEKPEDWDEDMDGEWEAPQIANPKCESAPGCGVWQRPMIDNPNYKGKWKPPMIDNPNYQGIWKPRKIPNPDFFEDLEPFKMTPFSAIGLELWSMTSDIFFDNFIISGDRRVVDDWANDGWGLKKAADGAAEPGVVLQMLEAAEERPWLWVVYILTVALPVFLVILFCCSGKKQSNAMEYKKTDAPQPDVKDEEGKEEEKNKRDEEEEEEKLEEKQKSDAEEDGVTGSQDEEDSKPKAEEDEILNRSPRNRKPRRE
UniProt Q9EQ60: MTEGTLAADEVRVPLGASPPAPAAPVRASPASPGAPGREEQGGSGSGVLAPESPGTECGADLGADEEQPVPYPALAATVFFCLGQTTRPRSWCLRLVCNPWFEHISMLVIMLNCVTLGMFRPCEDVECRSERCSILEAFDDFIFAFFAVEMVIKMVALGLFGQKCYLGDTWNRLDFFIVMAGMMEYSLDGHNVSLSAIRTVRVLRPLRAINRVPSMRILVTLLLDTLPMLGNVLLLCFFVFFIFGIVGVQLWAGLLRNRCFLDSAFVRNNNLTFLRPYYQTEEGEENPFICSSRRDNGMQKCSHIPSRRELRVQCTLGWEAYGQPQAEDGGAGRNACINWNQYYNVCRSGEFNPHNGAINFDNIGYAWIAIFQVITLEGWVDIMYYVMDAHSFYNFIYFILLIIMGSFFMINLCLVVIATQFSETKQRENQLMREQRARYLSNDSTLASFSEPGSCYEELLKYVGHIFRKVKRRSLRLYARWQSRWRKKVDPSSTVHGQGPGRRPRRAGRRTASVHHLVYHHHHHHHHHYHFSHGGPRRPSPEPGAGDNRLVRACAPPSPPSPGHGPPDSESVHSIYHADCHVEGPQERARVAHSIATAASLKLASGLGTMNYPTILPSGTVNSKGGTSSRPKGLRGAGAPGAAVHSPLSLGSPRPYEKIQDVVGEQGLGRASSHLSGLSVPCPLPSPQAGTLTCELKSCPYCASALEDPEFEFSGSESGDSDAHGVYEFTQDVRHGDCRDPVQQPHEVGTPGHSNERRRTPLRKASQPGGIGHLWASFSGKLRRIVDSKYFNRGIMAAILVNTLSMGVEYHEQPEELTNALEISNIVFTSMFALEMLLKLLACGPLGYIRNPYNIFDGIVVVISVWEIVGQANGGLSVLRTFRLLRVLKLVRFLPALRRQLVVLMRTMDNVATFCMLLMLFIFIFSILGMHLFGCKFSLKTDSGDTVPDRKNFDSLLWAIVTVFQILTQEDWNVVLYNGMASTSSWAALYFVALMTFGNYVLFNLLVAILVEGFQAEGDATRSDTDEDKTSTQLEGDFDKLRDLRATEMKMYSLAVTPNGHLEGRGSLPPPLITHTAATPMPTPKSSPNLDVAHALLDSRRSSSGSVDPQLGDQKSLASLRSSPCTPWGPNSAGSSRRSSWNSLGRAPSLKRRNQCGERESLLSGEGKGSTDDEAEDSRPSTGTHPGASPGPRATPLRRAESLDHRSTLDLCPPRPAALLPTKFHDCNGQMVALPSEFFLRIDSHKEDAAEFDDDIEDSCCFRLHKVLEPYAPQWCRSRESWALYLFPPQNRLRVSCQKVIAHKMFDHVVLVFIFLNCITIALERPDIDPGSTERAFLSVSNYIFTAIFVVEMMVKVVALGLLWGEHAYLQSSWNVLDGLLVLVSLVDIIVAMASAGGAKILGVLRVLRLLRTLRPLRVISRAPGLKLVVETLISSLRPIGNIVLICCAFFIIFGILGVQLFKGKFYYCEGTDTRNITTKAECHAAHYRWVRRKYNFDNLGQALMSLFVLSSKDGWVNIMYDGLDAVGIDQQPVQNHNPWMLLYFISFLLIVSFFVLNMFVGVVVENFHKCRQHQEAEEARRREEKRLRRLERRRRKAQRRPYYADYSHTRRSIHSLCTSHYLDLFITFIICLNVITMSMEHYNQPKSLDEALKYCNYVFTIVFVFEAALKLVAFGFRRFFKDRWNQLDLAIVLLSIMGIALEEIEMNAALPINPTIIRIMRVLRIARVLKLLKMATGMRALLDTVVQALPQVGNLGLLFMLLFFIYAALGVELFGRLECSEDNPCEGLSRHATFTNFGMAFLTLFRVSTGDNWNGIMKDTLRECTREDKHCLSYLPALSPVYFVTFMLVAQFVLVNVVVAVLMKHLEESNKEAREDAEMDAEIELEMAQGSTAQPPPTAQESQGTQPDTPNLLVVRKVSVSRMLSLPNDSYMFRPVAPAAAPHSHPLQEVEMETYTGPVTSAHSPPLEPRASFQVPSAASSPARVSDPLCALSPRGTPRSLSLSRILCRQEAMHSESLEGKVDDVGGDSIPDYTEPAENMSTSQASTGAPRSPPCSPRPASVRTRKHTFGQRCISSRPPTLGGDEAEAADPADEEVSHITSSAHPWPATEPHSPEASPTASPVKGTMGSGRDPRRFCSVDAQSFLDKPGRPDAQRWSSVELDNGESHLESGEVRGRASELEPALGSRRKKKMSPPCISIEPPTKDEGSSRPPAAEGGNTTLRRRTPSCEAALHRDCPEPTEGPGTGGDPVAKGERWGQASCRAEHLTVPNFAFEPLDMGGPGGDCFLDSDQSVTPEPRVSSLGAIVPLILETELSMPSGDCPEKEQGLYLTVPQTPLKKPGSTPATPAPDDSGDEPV
UniProt O88427: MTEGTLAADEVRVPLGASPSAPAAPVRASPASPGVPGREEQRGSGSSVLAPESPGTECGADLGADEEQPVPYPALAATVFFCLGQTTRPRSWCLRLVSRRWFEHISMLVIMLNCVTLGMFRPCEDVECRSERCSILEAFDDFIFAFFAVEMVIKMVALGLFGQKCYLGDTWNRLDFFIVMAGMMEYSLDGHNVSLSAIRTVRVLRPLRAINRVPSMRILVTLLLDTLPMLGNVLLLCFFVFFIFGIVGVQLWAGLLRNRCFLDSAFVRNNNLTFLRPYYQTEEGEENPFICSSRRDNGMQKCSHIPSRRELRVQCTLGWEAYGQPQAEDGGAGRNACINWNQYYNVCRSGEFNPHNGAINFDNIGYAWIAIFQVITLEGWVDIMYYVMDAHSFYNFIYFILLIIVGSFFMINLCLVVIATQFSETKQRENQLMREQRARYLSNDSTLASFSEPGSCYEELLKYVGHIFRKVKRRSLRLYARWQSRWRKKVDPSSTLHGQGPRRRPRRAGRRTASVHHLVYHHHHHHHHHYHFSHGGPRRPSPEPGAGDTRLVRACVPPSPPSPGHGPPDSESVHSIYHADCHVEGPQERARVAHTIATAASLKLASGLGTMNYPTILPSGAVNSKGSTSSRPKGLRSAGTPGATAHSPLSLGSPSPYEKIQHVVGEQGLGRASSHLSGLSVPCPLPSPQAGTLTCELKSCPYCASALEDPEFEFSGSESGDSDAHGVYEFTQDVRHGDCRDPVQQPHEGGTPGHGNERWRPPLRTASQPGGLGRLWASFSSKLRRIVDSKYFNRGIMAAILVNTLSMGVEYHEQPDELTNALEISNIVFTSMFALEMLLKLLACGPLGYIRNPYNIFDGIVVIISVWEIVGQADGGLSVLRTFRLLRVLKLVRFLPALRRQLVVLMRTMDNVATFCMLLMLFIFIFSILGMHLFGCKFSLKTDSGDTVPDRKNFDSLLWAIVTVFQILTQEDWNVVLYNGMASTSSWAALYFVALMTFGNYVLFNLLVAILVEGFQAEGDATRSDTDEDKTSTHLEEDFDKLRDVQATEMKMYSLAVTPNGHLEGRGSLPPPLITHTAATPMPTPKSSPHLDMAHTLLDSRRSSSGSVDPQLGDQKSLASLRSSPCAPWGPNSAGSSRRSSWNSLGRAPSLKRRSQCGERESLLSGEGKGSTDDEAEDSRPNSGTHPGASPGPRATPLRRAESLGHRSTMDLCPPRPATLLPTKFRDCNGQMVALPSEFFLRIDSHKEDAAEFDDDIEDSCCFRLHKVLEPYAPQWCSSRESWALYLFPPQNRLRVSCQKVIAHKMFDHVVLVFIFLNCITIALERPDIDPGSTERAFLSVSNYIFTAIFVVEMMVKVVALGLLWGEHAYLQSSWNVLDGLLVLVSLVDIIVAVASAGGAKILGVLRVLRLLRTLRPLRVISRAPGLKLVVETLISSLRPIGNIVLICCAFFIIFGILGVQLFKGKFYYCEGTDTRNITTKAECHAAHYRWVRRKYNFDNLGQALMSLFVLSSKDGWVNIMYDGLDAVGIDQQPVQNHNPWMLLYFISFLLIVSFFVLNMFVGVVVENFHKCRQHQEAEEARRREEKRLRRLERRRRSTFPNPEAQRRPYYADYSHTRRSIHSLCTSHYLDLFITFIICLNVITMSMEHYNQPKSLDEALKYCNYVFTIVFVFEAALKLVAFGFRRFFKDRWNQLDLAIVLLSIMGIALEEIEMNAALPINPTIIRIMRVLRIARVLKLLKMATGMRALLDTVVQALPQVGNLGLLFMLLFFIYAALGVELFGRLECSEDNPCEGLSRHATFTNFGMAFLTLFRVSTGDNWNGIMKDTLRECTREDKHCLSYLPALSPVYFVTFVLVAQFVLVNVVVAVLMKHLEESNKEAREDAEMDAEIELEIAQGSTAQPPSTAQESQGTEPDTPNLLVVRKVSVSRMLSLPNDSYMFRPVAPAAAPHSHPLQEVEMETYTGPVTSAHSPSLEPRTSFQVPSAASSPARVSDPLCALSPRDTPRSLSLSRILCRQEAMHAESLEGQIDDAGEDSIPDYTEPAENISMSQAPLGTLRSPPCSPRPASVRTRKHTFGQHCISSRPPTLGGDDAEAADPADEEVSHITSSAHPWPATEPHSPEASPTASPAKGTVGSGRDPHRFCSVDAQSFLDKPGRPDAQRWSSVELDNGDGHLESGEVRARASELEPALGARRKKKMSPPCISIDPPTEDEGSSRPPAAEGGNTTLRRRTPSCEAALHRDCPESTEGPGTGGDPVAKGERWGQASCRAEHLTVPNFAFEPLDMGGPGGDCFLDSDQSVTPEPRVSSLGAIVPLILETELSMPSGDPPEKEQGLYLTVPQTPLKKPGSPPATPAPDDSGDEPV
UniProt P18418, residues 18-416: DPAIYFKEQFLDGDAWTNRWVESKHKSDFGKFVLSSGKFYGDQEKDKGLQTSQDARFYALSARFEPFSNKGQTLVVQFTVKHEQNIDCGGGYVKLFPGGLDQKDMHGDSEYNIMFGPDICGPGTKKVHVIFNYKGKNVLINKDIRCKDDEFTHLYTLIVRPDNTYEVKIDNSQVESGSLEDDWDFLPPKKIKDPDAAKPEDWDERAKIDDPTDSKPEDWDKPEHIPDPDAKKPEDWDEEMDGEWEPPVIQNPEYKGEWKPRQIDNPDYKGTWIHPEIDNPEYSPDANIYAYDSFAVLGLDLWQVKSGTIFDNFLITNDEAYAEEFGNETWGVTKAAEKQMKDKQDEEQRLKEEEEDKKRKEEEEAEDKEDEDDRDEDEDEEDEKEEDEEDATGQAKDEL

Experiment [2] has as its target T2, calnexin (mouse brain) (mouse (endogenous in brain)) (UniProt P35564).
T2 sequence: T1 sequence with M8A, T31A, S153A, N156S, R396K, G452L, G518R, G540V
Nature of the experiment: co-IP; WT versus Cav3.2 KO mouse brain homogenates; precipitated with an anti-calnexin antibody, blotted for Cav3.2.

The target of experiment [3] is Cav3.2 T-type calcium channel (rat brain; non-epileptic control strain) (rat (endogenous in brain)) (UniProt Q9EQ60). In words: co-IP; brain homogenate (Fig. S1); native calreticulin and BiP detected by blot; catching antibody not told for this experiment.
Experiment [4] addresses HA-tagged human Cav3.2 channel (human) (UniProt O95180). Nature of the experiment: co-IP; tsA-201 cells 72 h after transfection, NP40 lysis buffer (50 mM Tris, 150 mM NaCl, 1% NP40, pH 8.0); precipitated with anti-HA (hCav3.2-HA), blotted with anti-CNX or anti-mCherry.

Substitutions are numbered along the chain they refer to. Results are given in words; binding and its absence hold for the method and conditions named. In cells and extracts the contact can be indirect. Some results given as binding are weak or reduced against the parent protein; the word gives no strength.

For the molecule “Cav3.2 T-type calcium channel (rat brain; non-epileptic control strain) (from UniProt Q9EQ60 1-2359)”, the binding entry in experiment [1] is “binds”. “Cav3.2 T-type calcium channel (mouse brain) (from UniProt O88427 1-2365)”: the binding entry in experiment [2] is given as “binds”. On to “calreticulin (brain homogenate) (from UniProt P18418 18-416)”, for which the binding entry in experiment [3] is listed as “no binding”.

B1: calnexin in tsA-201 cells (protein, UniProt P27824 21-592)
chain: HDGHDDDVIDIEDDLDDVIEEVEDSKPDTTAPPSSPKVTYKAPVPTGEVYFADSFDRGTLSGWILSKAKKDDTDDEIAKYDGKWEVEEMKESKLPGDKGLVLMSRAKHHAISAKLNKPFLFDTKPLIVQYEVNFQNGIECGGAYVKLLSKTPELNLDQFHDKTPYTIMFGPDKCGEDYKLHFIFRHKNPKTGIYEEKHAKRPDADLKTYFTDKKTHLYTLILNPDNSFEILVDQSVVNSGNLLNDMTPPVNPSREIEDPEDRKPEDWDERPKIPDPEAVKPDDWDEDAPAKIPDEEATKPEGWLDDEPEYVPDPDAEKPEDWDEDMDGEWEAPQIANPRCESAPGCGVWQRPVIDNPNYKGKWKPPMIDNPSYQGIWKPRKIPNPDFFEDLEPFRMTPFSAIGLELWSMTSDIFFDNFIICADRRIVDDWANDGWGLKKAADGAAEPGVVGQMIEAAEERPWLWVVYILTVALPVFLVILFCCSGKKQTSGMEYKKTDAPQPDVKEEEEEKEEEKDKGDEEEEGEEKLEEKQKSDAEEDGGTVSQEEEDRKPKAEEDEILNRSPRNRKPRRE
As to B1, in experiment [4], the binding result is “binds”.

The values above are taken from publication PMC5599688.
